This passage reports binding results from patent publication US20030022837A1 (Stanford University, published 2003).

The target in experiment [1] is Skp1 (yeast two-hybrid). Briefly: yeast two-hybrid screen of a Xenopus oocyte library.
The target of experiment [2] is Skp1 (yeast two-hybrid). As to the kind of experiment: yeast two-hybrid screen.
The target in experiment [3] is Cdc20(1-158), in vitro translated. Briefly: yeast two-hybrid.
In experiment [4] the target is Cdc20 WD repeat domain. Briefly: yeast two-hybrid.
Experiment [5] deals with Cdc20(1-158), in vitro translated. Briefly: in vitro binding assay (GST pull-down of 35S-labeled IVT Cdc20(1-158)).
In experiment [6] the target is Cdc20 WD repeat domain. As to the kind of experiment: in vitro binding assay.

Results are given in words; binding and its absence hold for the method and conditions named. For part of these data: Binding calls can cover weak binding; strength is not graded here. For part of these data: In cells and extracts the contact can be indirect. For part of these data: Tags and fused reporters may be left off the sequences shown.

B1: Xenopus Emi1 (Early Mitotic Inhibitor 1), full-length wild type (other)
chain: MMCGFASNQSPKKLSSKKSSATNVHLEISPVKHHPPCKVYENVQGSCLDSAICTTVAKCADLTDDLPVHNKENLLHRLNDLETNSYEEYSALQDSGYSSILQNDSPCQDETDRKVSDIQVRETPKNFMSYQRPFHTLSKINLPILRFEEAVCSTLKKMRKTNKKIDWNAVDVVCGGNYGLEHLIGKSMGLERFDILAELFHRDFKHLLTKILRHLSAMDLINVISVSTTWRKLLQKDNWAYNAYKLGCKELCEKRAKVSSHTATRDESLCRVPLASVQKVAASSLCTSKKQSKNKNGGLSCNRLAEFIEVAQTLKNDQSLKVCVDCGSPAKHDPCLHRAICTRESCKLDFCTRCSCKYHFSKSCLMSKPGSYRIPSEPLPGSKKSKQNLRRL
notes: 392 residues; also called xEmi1; Emi1p
As to B1, the binding result in experiment [1] is reported as “binds”; in experiment [2], “binds”; in experiment [3], “binds”; in experiment [4], “no binding”.

B2: GST-Emi1 (Xenopus Emi1 fused to glutathione S-transferase) (protein, not shown: a dimerising Fc or GST)
chain: B1 chain
With B2, the binding result in experiment [5] was “binds”; in experiment [6], “no binding”.
